Data as given in PubChem BioAssay AID1259254 (NCATS, 2017)
Here is one part, drawn at random, of about 59,000 reagents tested. Over the whole deposit, about 1,550 (2.6%) are marked active. 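G2 share is only a proxy for re-replication; each gene was hit by three separate siRNAs, and active genes were retested.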 Entries without a mark were called inactive. Reagents against one gene are numbered here. Not all columns of the deposit are shown. Not stated in the record: the amount of reagent.

- Assay: 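Gene knock-downs that lead to re-replication, shown by excess G2 DNA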 (primary screen)
- System: human HCT116 colorectal cancer cells
- Reagent: single siRNA against human genes
- Duration: 3 days
- Measurement: 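Imaged Hoechst DNA stain sorts each cell into a cycle phase by DNA amount; per plate, G2 fraction set to 0% for non-targeting and 100% for GMNN siRNA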
- Reading the numbers: G2 robust z-score: higher = more G2 cells, more excess DNA replication
- Call rule: 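Active siRNAs have a G2 robust z of 5 or more median absolute deviations over the median, which in these data means about 38% or higher of GMNN control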

What is on record for DPEP3 (dipeptidase 3) #1?
G2 robust z-score: -1.14

For DPEP3 (dipeptidase 3) #2, what does the deposit list?
G2 robust z-score: -0.504

For DPEP3 (dipeptidase 3) #3, what was measured?
G2 robust z-score: -0.0912

What did the screen give for OR6C1 (olfactory receptor family 6 subfamily C member 1) #1?
G2 robust z-score: -0.367

For OR6C1 (olfactory receptor family 6 subfamily C member 1) #2, how do the results read?
G2 robust z-score: 3.63

What did the screen give for OR6C1 (olfactory receptor family 6 subfamily C member 1) #3?
G2 robust z-score: -0.665

With CEP170B (centrosomal protein 170B) #1, what was measured?
G2 robust z-score: 1.29

With CEP170B (centrosomal protein 170B) #2, what does the deposit list?
G2 robust z-score: 0.747

For CEP170B (centrosomal protein 170B) #3, what was measured?
G2 robust z-score: -0.417

What did the screen give for MAGEA12 (MAGE family member A12) #1?
G2 robust z-score: -1.14

What is on record for MAGEA12 (MAGE family member A12) #2?
G2 robust z-score: 1.5

For MAGEA12 (MAGE family member A12) #3, how do the results read?
G2 robust z-score: 0.469

How did the screen score DCAF8 (DDB1 and CUL4 associated factor 8) #1?
G2 robust z-score: -0.695

With DCAF8 (DDB1 and CUL4 associated factor 8) #2, what was measured?
G2 robust z-score: 0.00808

For DCAF8 (DDB1 and CUL4 associated factor 8) #3, how do the results read?
G2 robust z-score: -0.689

How did the screen score SIRAL1 (SIR2 antiphage like 1) #1?
G2 robust z-score: 5.88 (active)

What did the screen give for SIRAL1 (SIR2 antiphage like 1) #2?
G2 robust z-score: 2.36

How did the screen score SIRAL1 (SIR2 antiphage like 1) #3?
G2 robust z-score: 0.209

For IFITM3P2 (IFITM3 pseudogene 2) #1, what does the deposit list?
G2 robust z-score: -0.134

For IFITM3P2 (IFITM3 pseudogene 2) #2, what does the deposit list?
G2 robust z-score: 2.65

With IFITM3P2 (IFITM3 pseudogene 2) #3, how do the results read?
G2 robust z-score: 1.31

With FDXR (ferredoxin reductase) #1, what was measured?
G2 robust z-score: -0.571

Which result is listed for FDXR (ferredoxin reductase) #2?
G2 robust z-score: -0.34

For FDXR (ferredoxin reductase) #3, what does the deposit list?
G2 robust z-score: 1.13

For ECM2 (extracellular matrix protein 2) #1, what does the deposit list?
G2 robust z-score: -0.412

With ECM2 (extracellular matrix protein 2) #2, what does the deposit list?
G2 robust z-score: 1.53

What did the screen give for ECM2 (extracellular matrix protein 2) #3?
G2 robust z-score: 0.488

Which result is listed for LHX5 (LIM homeobox 5) #1?
G2 robust z-score: 0.448

What is on record for LHX5 (LIM homeobox 5) #2?
G2 robust z-score: 1.24

For LHX5 (LIM homeobox 5) #3, how do the results read?
G2 robust z-score: 0.356

Targets listed so far whose target name starts with I or i (3):
IFITM3P2 (IFITM3 pseudogene 2) #1 — G2 robust z-score: -0.134
IFITM3P2 (IFITM3 pseudogene 2) #2 — G2 robust z-score: 2.65
IFITM3P2 (IFITM3 pseudogene 2) #3 — G2 robust z-score: 1.31
